From patent US20170362330A1

B1: YS5 (antibody, V domains shown)
VH: QVQLVQSGGGVVQPGRSLRLACAASGLTVNNYAMHWVRQAPGKGLEWVAVISYDGNNKYYADSVKGRFTISRDNSKNTLYLQMNSLRAEDTAVYYCAKGGGYFDLWGRGTLVTVSS
VL: QSVLTQPPSVSGAPGQRVTISCTGSSSNIGAGYDVHWYQQLPGTAPKLLIYGNNNRPSGVPDRFSGSKSGTSASLAITGLQAEDEADYYCSSYTSGTWLFGGGTKLTVL
B2: YS5F (antibody, V domains shown)
VH: QVQLVQSGGGVVQPGRSLRLACAASGFTVNNYAMHWVRQAPGKGLEWVAVISYDGNNKYYADSVKGRFTISRDNSKNTLYLQMNSLRAEDTAVYYCAKGGGYFDLWGRGTLVTVSS
VL: QSVLTQPPSVSGAPGQRVTISCTGSSSNIGAGYDVHWYQQLPGTAPKLLIYGNNNRPSGVPDRFSGSKSGTSASLAITGLQAEDEADYYCSSYTSGTWLFGGGTKLTVL
B3: YS5v1D (antibody, V domains shown)
VH: QVQLVQSGGGVVQPGRSLRLACAASGFTVNNYAMHWVRQAPGKGLEWVAVISYDGNNKYYADSVKGRFTISRDNSKNTLYLQMNSLRAEDTAVYYCAKGGGYFDLWGRGTLVTVSS
VL: QSVLTQPPSVSGAPGQRVTISCTGSSSNIGAGYDVHWYQQLPGTAPKLLIYGDNNRPSGVPDRFSGSKSGTSASLAITGLQAEDEADYYCSSYTSGTWLFGGGTKLTVL
B4: SB1HGNY (antibody, V domains shown)
VH: QVQLQQSGGGVVQPGRSLRLSCAASGFTFSSYAMHWVRQAPGKGLEWVAFIRSDGSKKYYADSVKGRFTISRDNSKNTLYLQMNSLRAEDTAVYYCARHGNYFDSWGQGTLVTVSS
VL: DIQMTQSPSFLSASVGDRVTITCRASQGISSYLAWYQQKPGKAPKLLIYAASTLQSGVPSSFSGSGSGTEFTLTISSLQPEDFATYYCQQLASYPLTFGGGTKVDIK
B5: YS12 (antibody, V domains shown)
VH: QVQLVESGGGVVQPGRSLRLSCAASGFTFSTYGMHWVRQAPGKGLEWLSFISYDGDEKYYADSVKGRFTISRDNSKNTLYLQMNSLRAEDTAVYWCAKASGYGMGILDYWGQGTLVTVSS
VL: SSELTQDPAVSVALGQTVRITCQGDSLRSYYVSWFQQKPGQAPVFVMYGQNNRPSGISERFSGSSSGNTASLIITGAQAEDEADYYCHSRDSSGTHLRVFGGGTKLTVL
B6: 3G7RY (aka 3G8) (antibody, V domains shown)
VH: EVQLVESGGGLVQPGGSLRLSCAASGFTFSDYYMSWIRQAPGKGLEWVSYISSSGSTIYYADSVKGRFTISRDNSKNTLYLQMNSLRAEDTAVYYCARDYGRIAAAGRRYWGQGTLVTVSS
VL: QSALTQPPSASATPGQRVTISCSGRTSNIGSNHVYWYQQLPGTAPKLLIYRNNQRPSGVPDRFSGSKSGTSASLAISGLRSEDEADYYCATWDDSLSGEVFGGGTKLTVL
B7: YS6 (antibody, V domains shown)
VH: QVQLQESGGGVVRPGGSLRLSCAASGFTFSDYYMSWIRQAPGKGLEWVSYISSSGSTIYYADSVKGRFTISRDNSKNTLYLQMNSLRAEDTAVYYCARDYGRIAAAGRHYWGQGTLVTVSS
VL: SSELTQDPAVSVALGQTVRITCQGDSLRSYYASWYQQKPGQAPVLVIYGKNNRPSGIPDRFSGSSSGNTASLTITGAQAEDEADYYCNSRDSSGTHLEVFGGGTKVTVL
B8: YS1 (antibody, V domains shown)
VH: EVQLVESGGGLVQPGGSLRLSCAASGFTFSDYYMSWIRQAPGKGLEWVSYISSSGSTIYYADSVKGRFTISRDNSKNTLYLQMNSLRAEDTAVYYCARDYGRIAAAGRHYWGQGTLVTVSS
VL: SSELTQDPAVSVALGQTVRITCQGDTLSTYYANWYQQKPGQAPVLVIYGKNNRPSGIPDRFSGSSSGNTASLTITGAQAEDEADYYCHSRDISGNYLFASGTKLTVL
B9: YS4 (antibody, V domains shown)
VH: QVQLQESGGGLVQPGGSLRLSCAASGFTFSNYAMSWVRQAPGKGLEWVSTISGSGSSTFYVDSVKGRFTISRDNSKNTLYLQMNSLRAEDTAVYYCAQGLYSSGWANWFDPRGQGTLVTVSS
VL: KIVLTQSPSSLSASVGDTVTIACRASRDIRNDLAWYQQKPGKAPKLLIYGASSLQSGVPSRFSGSGSGTEFILTISSLQPEDFATYYCHRLNSYPLTFGGGTKVDIK
B10: YS7 (antibody, V domains shown)
VH: QVQLVQSGGGVVQPGRSLRLSCAASGFTFSSYAMHWVRQAPGKGLEWVAVISYDGSNKYYADSVKGRFTISRDTSTNTLYLQMNSLRADDTAVYYCGRESSGSPGVWGQGTTVTVSS
VL: SYVLTQDPAVSVALGQTVRITCQGDSLRSYYASWYQQKPGQAPVLVIYGKNNRPSGIPDRFSGSSSGNTASLTITGAQAEDEADYYCNSRDSSGNQFGGGTKLTVL
B11: YS9 (antibody, V domains shown)
VH: QVQLVESGGGLIQPGGSLRLSCAASGFTVSSNYMSWVRQAPGKGLEWVSVIYTDGSTYYADSVKGRFTISRDNSKNTLYLQMNSLRAEDTAIYYCARDRGTSGYDWAWFDLWGQGTLVTVSS
VL: SSELTQDPAVSVALGQTVRITCQGDSLRTYYASWYQQRPGQAPILVLYGKNNRPSGIPDRFSGSSSGNTASLTITGAQAEDEADYYCNSRDSSGNHVVFGGGTKLTVL
B12: YS10 (antibody, V domains shown)
VH: QVQLQESGGGLVQPGGSLRLSCAASGFTFSSYAMSWVRQAPGKGLEWVSAISGSGGSTYYADSVKGRFTISRDNSKNTLYMQMNSLRAEDTAVYYCAKDRYYYGSGKDAFDIWGRGTMVTVSS
VL: QSVLTQPASVSGSPGQSITISCTGTGSDVGSYNYVSWYQQNPGKAPKLMIYEVSNRPSGVSNRFSGSKSGNTASLTISGLQAEDEADYYCSSYTTSSTLVFGGGTKVTVL
B13: YS11 (antibody, V domains shown)
VH: QVQLVESGGGLVQPGGSLGLSCAASGFTFSNYWMSWVRQAPGKGLEWVANVRQDGGQKYYVDSVKGRFTISRDNAKNSLYLQMNSLRTEDTAVYFCVSQRNSGEHDYWGQGTLVTVSS
VL: SELTQDPAVSVALGQTVRITCQGDSLRSYYASWYQQKPGQAPVLVIYGENSRPSGIPDRFSGSSSGNTASLTITGAQAEDEADYYCNSWDSSGNHVVFGGGTKLTVL
B14: 3G7NY (antibody, V domains shown)
VH: EVQLVESGGGLVQPGGSLRLSCAASGFTFSDYYMSWIRQAPGKGLEWVSYISSSGSTIYYADSVKGRFTISRDNSKNTLYLQMNSLRAEDTAVYYCARDYGRIAAAGRNYWGQGTLVTVSS
VL: DIVMTQSPLSLPVTPGEPASISCRSSQSLLHSNGYDYLDWYLQKPGQSPQLLIYLGSNRASGVPDRFSGSGSGTDFTLKISRVETEDVGIYYCMQGLQTPSFGQGTKLEIK
B15: 3G7 (antibody, V domains shown)
VH: QVQLQESGGGVVRPGGSLRLSCAASGFTFSDYYMSWIRQAPGKGLEWVSYISSSGSTIYYADSVKGRFTISRDNSKNTLYLQMNSLRAEDTAVYYCARDYGRIAAAGRHYWGQGTLVTVSS
VL: SSELTQDPAVSVALGQTVRITCQGDSLRSYYASWYQQKPGQAPVPVIYGKNNRPSGIPDRFSGSSSGNTASLTITGAQAEDEADYYCNSRDSSSTHRGVFGGGTKLTVL
B16: SB2 (antibody, V domains shown)
VH: EVQLVESGGGLVKPGGSLRLSCAASGFTFSDYYMSWIRQAPGKGLEWVSYISSSGSSIYYADSVKGRFTISRDNAKNSLYLQMNSLKAEDTAVYYCARDITDVVGVSFDYWGQGTLVTVSS
VL: DIQLTQSPSSLSASVGDRVTITCRASRSISTYLSWYQQKPGKAPKLLIYDASRLQNGVPSRFSGSGSDTDFTLTISSLQPEDFATYFCQQSYNPPWTFGQGTKLEIK
B17: UA8kappa (antibody, V domains shown)
VH: EVQLVESGGGVVQPGRSLRLSCAASGFTFSSFGMHWVRRAPGKGLEWVAVISYDGSNQYYADSVKGRFTISRDNSKNTLYLQMNSLRAEDTAVYYCGSRPGGGYASGSTVAYWGQGTLVTVSS
VL: NIQMTQSPSSLSASVGDRVTITCRAGQPISTYVNWYQHKPGKAPKLLIYGASNLQSGVPSRFSGGGSATDFTLTISSLQPEDFATYYCQQSYSSLLTFGDGTKVEIK

Target: cynomolgus monkey CD46 (cynomolgus monkey)
Assay: FACS on CHO cells transfected with cynomolgus monkey CD46

binding, binds:
B1
B2
B3
B4
B5
B6
B7
B8
B9
B10
B11
B12
B13
B14
B15
B16
B17

Target: cynomolgus monkey CD46 (cynomolgus monkey)
Assay: FACS on CHO-cynoCD46 cells, 4 C overnight, MFI against antibody concentration

binding, binds:
B1

Target: cynomolgus monkey CD46 (cynomolgus monkey)
Assay: FACS on CHO cells transfected with cynomolgus monkey CD46 (panel CHO-cyno CD46)

binding, binds:
B1

No constants are given. Whether binding was seen depends on the method and setting. A result given as binding can be weak or reduced; the word gives no strength.
